PubChem BioAssay AID743121 | NCATS – 2013
Aim: 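Partners whose loss is lethal together with topoisomerase I blockade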 (primary screen). Cells: MDA-MB-231 cells, a human breast cancer line. Knock-down reagent: single siRNA against human genes, 20 nM siRNA (0.8 pmol per well). Duration: 120 h (drug added 48 h after transfection, read 72 h later). Conditions: camptothecin 20 nM (about EC30) for 72 h; vehicle 0.1% DMSO in parallel plates. Measurement: 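CellTiter-Glo ATP signal, scaled to control siRNA as percent viability; sensitisation given as log2 of untreated divided by camptothecin-treated viability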. Reading the numbers: log2 vehicle/camptothecin viability: higher = stronger sensitisation to camptothecin; viability with camptothecin: higher = more viable cells. Call rule: 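Each gene scored by redundant siRNA activity (RSA) over its individual siRNA ratios; a gene is called active at p < 0.001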.
The deposit covers about 26,000 reagents; shown is an unselected part. 167 of all reagents (0.63%) were called active. 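Calls are per gene from RSA p-values that are not deposited; an individual active-marked siRNA can sensitise only weakly.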 The numbers tell different reagents against one gene apart. Further read-outs or replicates are left out here. No sequences are given here.

| Gene | reagent no. | log2 vehicle/camptothecin viability | viability with camptothecin (% of control) | activity call |
| --- | --- | --- | --- | --- |
| TAB2 (TGF-beta activated kinase 1 (MAP3K7) binding protein 2) | 1 | 1.03 | 24.4 | active |
| TAB2 (TGF-beta activated kinase 1 (MAP3K7) binding protein 2) | 2 | 0.958 | 21.9 | active |
| TAB2 (TGF-beta activated kinase 1 (MAP3K7) binding protein 2) | 3 | 1.42 | 16.9 | active |
| TAB2 (TGF-beta activated kinase 1 (MAP3K7) binding protein 2) | 4 | 1.49 | 13.6 | active |
| LIPG (lipase G, endothelial type) | 1 | -0.76 | 82 | inactive |
| LIPG (lipase G, endothelial type) | 2 | -0.39 | 83 | inactive |
| LIPG (lipase G, endothelial type) | 3 | -0.405 | 57.1 | inactive |
| RGS13 (regulator of G protein signaling 13) | 1 | -0.271 | 28.2 | inactive |
| RGS13 (regulator of G protein signaling 13) | 2 | 0.261 | 48.1 | inactive |
| RGS13 (regulator of G protein signaling 13) | 3 | -0.101 | 102 | inactive |
| SNRPD3 (small nuclear ribonucleoprotein D3 polypeptide) | 1 | -0.351 | 77.2 | inactive |
| SNRPD3 (small nuclear ribonucleoprotein D3 polypeptide) | 2 | -0.415 | 20.5 | inactive |
| SNRPD3 (small nuclear ribonucleoprotein D3 polypeptide) | 3 | -0.647 | 31.5 | inactive |
| SNRPD3 (small nuclear ribonucleoprotein D3 polypeptide) | 4 | -0.557 | 21.7 | inactive |
| SERPINB7 (serpin family B member 7) | 1 | -0.0396 | 108 | inactive |
| SERPINB7 (serpin family B member 7) | 2 | -0.428 | 63.8 | inactive |
| SERPINB7 (serpin family B member 7) | 3 | 0.0365 | 80.1 | inactive |
| SERPINB7 (serpin family B member 7) | 4 | 0.586 | 30.8 | inactive |
| PAQR9 (progestin and adipoQ receptor family member 9) | 1 | -0.311 | 40.8 | inactive |
| PAQR9 (progestin and adipoQ receptor family member 9) | 2 | -0.398 | 62.4 | inactive |
| PAQR9 (progestin and adipoQ receptor family member 9) | 3 | -0.27 | 56.7 | inactive |
| PAQR9 (progestin and adipoQ receptor family member 9) | 4 | -0.376 | 70.9 | inactive |
| IFNK (interferon kappa) | 1 | -0.023 | 80.7 | inactive |
| IFNK (interferon kappa) | 2 | -0.596 | 68.6 | inactive |
| IFNK (interferon kappa) | 3 | -0.187 | 110 | inactive |
| IFNK (interferon kappa) | 4 | -0.379 | 95.7 | inactive |
| BTNL3 (butyrophilin like 3) | 1 | 0.236 | 31.1 | inactive |
| BTNL3 (butyrophilin like 3) | 2 | -0.0498 | 108 | inactive |
| BTNL3 (butyrophilin like 3) | 3 | 0.0209 | 91.7 | inactive |
| BTNL3 (butyrophilin like 3) | 4 | 0.0187 | 43.4 | inactive |
| SMURF2 (SMAD specific E3 ubiquitin protein ligase 2) | 1 | -0.418 | 90.3 | inactive |
| SMURF2 (SMAD specific E3 ubiquitin protein ligase 2) | 2 | -0.449 | 82.5 | inactive |
| SMURF2 (SMAD specific E3 ubiquitin protein ligase 2) | 3 | 0.0471 | 111 | inactive |
| SMURF2 (SMAD specific E3 ubiquitin protein ligase 2) | 4 | 0.0336 | 92.3 | inactive |
| PRIM1 (DNA primase subunit 1) | 1 | -0.0529 | 83.2 | inactive |
| PRIM1 (DNA primase subunit 1) | 2 | -0.69 | 56.5 | inactive |
| PRIM1 (DNA primase subunit 1) | 3 | -0.407 | 64.7 | inactive |
| PRIM1 (DNA primase subunit 1) | 4 | 0.122 | 58.1 | inactive |
| ASCL2 (achaete-scute family bHLH transcription factor 2) | 1 | -0.566 | 88.4 | inactive |
| ASCL2 (achaete-scute family bHLH transcription factor 2) | 2 | -0.0267 | 103 | inactive |
| ASCL2 (achaete-scute family bHLH transcription factor 2) | 3 | -0.172 | 95.3 | inactive |
| ASCL2 (achaete-scute family bHLH transcription factor 2) | 4 | -0.213 | 81.8 | inactive |
| AKR1C8 (aldo-keto reductase family 1 member C8) | 1 | -0.278 | 85.9 | inactive |
| AKR1C8 (aldo-keto reductase family 1 member C8) | 2 | -0.138 | 98.4 | inactive |
| AKR1C8 (aldo-keto reductase family 1 member C8) | 3 | -0.374 | 24.4 | inactive |
| SGPL1 (sphingosine-1-phosphate lyase 1) | 1 | 0.27 | 98.9 | inactive |
| SGPL1 (sphingosine-1-phosphate lyase 1) | 2 | -0.00301 | 84.9 | inactive |
| SGPL1 (sphingosine-1-phosphate lyase 1) | 3 | -0.393 | 82.8 | inactive |

Hits, among the entries above:
| Gene | reagent no. | log2 vehicle/camptothecin viability | viability with camptothecin (% of control) | activity call |
| --- | --- | --- | --- | --- |
| TAB2 (TGF-beta activated kinase 1 (MAP3K7) binding protein 2) | 1 | 1.03 | 24.4 | active |
| TAB2 (TGF-beta activated kinase 1 (MAP3K7) binding protein 2) | 2 | 0.958 | 21.9 | active |
| TAB2 (TGF-beta activated kinase 1 (MAP3K7) binding protein 2) | 3 | 1.42 | 16.9 | active |
| TAB2 (TGF-beta activated kinase 1 (MAP3K7) binding protein 2) | 4 | 1.49 | 13.6 | active |
